Results as given in PubChem BioAssay AID540256 (National Center for Advancing Translational Sciences (NCATS), 2011).
About 3,700 (1.2%) of roughly 300,000 compounds were called active. Inconclusive results, whose numbers are uncertain, are shown with a selection of clear calls. Calls come from the whole dose curve; tested in HEK293 cells. Potencies of inconclusive entries are doubtful fits and often do not repeat.

Assay: qHTS for Inhibitors of binding or entry into cells for Lassa Virus; note: nearly all actives have a fitted effect of over 50% in size
Conditions: Lassa virus pseudotype entry inhibition, cell reporter; series mostly up to 37.9 µM
Potency is the fitted concentration of half-maximal effect.

Q: For `O=C(N/N=C/c1sc(N2CCOCC2)nc1-c1ccccc1)c1ccc(O)cc1`, which Potency is on record?
A: Its Potency is inconclusive: 35.5 µM [inhibitor, single point].

Q: With `CC(C)OC(=O)CCNc1n[nH]c(=O)[nH]c1=O` as the compound, how does the Potency read?
A: Its Potency is “inactive”.

Q: Which Potency does the source give for `COc1cccc(CNc2cccc(C(F)(F)F)c2)c1O` here?
A: Its Potency is inconclusive: 35.5 µM [inhibitor, single point].

Q: With `Cc1ccc(SCC(=O)Nc2ccc(-c3nc4ccccc4[nH]3)cc2)cc1` as the compound, how does the Potency read?
A: Its Potency is inconclusive: 18.4 µM [inhibitor, single point].

Q: For `O=C(Nn1cnc2ccccc2c1=O)c1ccccc1Cl`, which Potency is on record?
A: The Potency was “inactive”.

Q: For `COc1ccccc1CNC(=O)c1ccc(-c2nc(CN3CCc4ccccc43)c(C)o2)cc1`, which Potency is on record?
A: The Potency was “inactive”.

Q: Which Potency does the source give for `O=c1c2ccccc2c(-c2cccc(C(F)(F)F)c2)nn1-c1ccccc1` here?
A: The Potency was inconclusive: 11.2 µM [inhibitor, single point].

Q: For `O=C(Nc1ccc(NS(=O)(=O)c2ccccc2)cc1)c1ccc(Cl)cc1`, which Potency is on record?
A: Its Potency is inconclusive: 6.31 µM [activator, single point].

Q: Which Potency does the source give for `Cc1cc(N2CCOCC2)nc(-c2ccccc2O)n1` here?
A: Its Potency is inconclusive: 23.1 µM [activator, partial curve, poor fit].

Q: For `COc1ccc(C(CCNC(C)c2ccccc2)c2ccc(F)cc2)cc1` (configuration not stated), which Potency is on record?
A: The Potency was inconclusive: 17.8 µM [inhibitor, partial curve, poor fit].

Q: With `COc1ccccc1N=CC=C1OC(C)(C)C(C)(C)O1` as the compound, how does the Potency read?
A: The Potency was inconclusive: 2.82 µM [inhibitor, full curve, poor fit].

Q: With `Cc1ccsc1/C=N/NC(=O)Cc1cccn1C` as the compound, how does the Potency read?
A: The Potency was “inactive”.

Q: With `Nc1c(-c2ccc(Cl)cc2)cnn1-c1ccccc1` as the compound, how does the Potency read?
A: Its Potency is inconclusive: 35.5 µM [inhibitor, single point].

Q: With `O=C(CSc1ncn(-c2ccccc2)n1)NCc1ccccc1` as the compound, how does the Potency read?
A: Its Potency is “inactive”.

Q: Which Potency does the source give for `CCCn1c(SCC(=O)c2cc(C)n(-c3cc(C)on3)c2C)n[nH]c1=O` here?
A: The Potency was inconclusive: 35.5 µM [inhibitor, single point].

Q: Which Potency does the source give for `Cc1ccccc1Cn1cc(NC(=O)c2nc3ncccn3n2)cn1` here?
A: Its Potency is inconclusive: 6.51 µM [activator, single point].

Q: For `NC(=O)c1ccc[n+](Cc2ccc(-c3ccccc3)cc2)c1`, which Potency is on record?
A: Its Potency is inconclusive: 1.78 µM [inhibitor, partial curve, poor fit].

Q: For `Cc1cc(C)cc(OCC(=O)Nc2ccc(-c3nc4ccccc4o3)cc2)c1`, which Potency is on record?
A: The Potency was “inactive”.

Q: Which Potency does the source give for `CCC(c1nnnn1C(C)(C)C)N1CCN(c2cc(Cl)ccc2C)CC1` (configuration not stated) here?
A: The Potency was active: 12.6 µM.

Q: Which Potency does the source give for `COc1cccc(C(=O)Nc2cc3c(cc2C(=O)c2ccc(C)cc2)OCCO3)c1` here?
A: Its Potency is “inactive”.

Q: For `FC(F)(F)c1cccc(N2CCc3cn[nH]c32)c1`, which Potency is on record?
A: Its Potency is “inactive”.

Q: Which Potency does the source give for `CCCC(=O)Nc1nc2ccc(NC(=O)c3ccccc3F)cc2s1` here?
A: Its Potency is inconclusive: 1.26 µM [inhibitor, single point].

Q: For `CC(C)C(NC(=O)CCN1C(=O)c2ccccc2C1=O)c1ccccc1` (configuration not stated), which Potency is on record?
A: Its Potency is inconclusive: 22.4 µM [inhibitor, single point].

Q: Which Potency does the source give for `CCN(CC)S(=O)(=O)c1ccc(N/N=C/c2ccc(O)cc2)nc1` here?
A: The Potency was “inactive”.

Q: Which Potency does the source give for `COc1ccc2c(c1)CC(C(=O)NCCCN1CCN(c3ccc(F)cc3)CC1)CO2` (configuration not stated) here?
A: The Potency was “inactive”.

Q: For `COc1ccc(-c2nc(CS(=O)CC(=O)NCc3ccccc3OC)c(C)o2)cc1` (configuration not stated), which Potency is on record?
A: The Potency was “inactive”.

Q: Which Potency does the source give for `CC(C)(C)C1(O)CC(C(F)(F)F)=NN1C(=O)CCCc1ccccc1` (configuration not stated) here?
A: Its Potency is inconclusive: 2.51 µM [activator, partial curve, poor fit].

Q: Which Potency does the source give for `CS(=O)(=O)c1cccc(C(=O)Nc2cccc(-c3nc4ccccc4[nH]3)c2)c1` here?
A: The Potency was inconclusive: 12.6 µM [inhibitor, single point].

Q: Which Potency does the source give for `CCOC(=O)c1c(C)nc2sc(C(=O)Nc3ccc(OC)cc3)c(N)c2c1-c1ccc(OC)cc1` here?
A: Its Potency is inconclusive: 2.24 µM [inhibitor, full curve].

Q: With `CNc1ccc(N=Nc2cccc3ncccc23)cc1` as the compound, how does the Potency read?
A: The Potency was inconclusive: 11.2 µM [inhibitor, partial curve].

Q: Which Potency does the source give for `CCOC(=O)c1c(SCC(=O)Nc2nccs2)nc(C)c(C)c1C` here?
A: Its Potency is “inactive”.

Q: Which Potency does the source give for `Cc1ccc(-n2ncc3c2CCCC3NC(=O)c2cnccn2)cc1C` (configuration not stated) here?
A: Its Potency is inconclusive: 35.5 µM [inhibitor, single point].

Q: For `Cc1ccc(CNC(=O)c2ccc(-n3cccc3)cc2)cc1`, which Potency is on record?
A: The Potency was “inactive”.

Q: With `Cc1ccc(Cl)cc1N1CCN(c2ncnc3onc(C)c23)CC1` as the compound, how does the Potency read?
A: The Potency was inconclusive: 2.82 µM [inhibitor, full curve].

Q: For `CC(=O)c1c(C)[nH]c(C(=O)OCC(=O)C(C)(C)C)c1C`, which Potency is on record?
A: The Potency was inconclusive: 0.103 µM [activator, full curve, poor fit].

Q: For `Cc1ccc(-c2noc(CN(C(=O)C(c3ccccc3)c3ccccc3)C(C)C)n2)cc1`, which Potency is on record?
A: The Potency was inconclusive: 16.4 µM [inhibitor, single point].

Q: For `CCOc1ccc(-c2nnc(SCc3nnc(-c4ccccc4)o3)n2-c2ccccc2F)cc1`, which Potency is on record?
A: The Potency was inconclusive: 25.1 µM [inhibitor, single point].

Q: With `CCN(CC)CC(=O)Nc1cccc(S(=O)(=O)N2CCCC2)c1` as the compound, how does the Potency read?
A: Its Potency is “inactive”.

Q: For `COc1ccc(Cl)cc1NC(=O)CN(C)CC(=O)Nc1ccccc1-c1ccccc1`, which Potency is on record?
A: Its Potency is inconclusive: 14.1 µM [inhibitor, single point].

Q: For `COc1ccccc1NS(=O)(=O)c1cc2c3c(c1)CC(=O)N3CCC2`, which Potency is on record?
A: Its Potency is “inactive”.

Q: For `O=C(N/N=C/c1cccs1)c1cc(-c2ccc3ccccc3c2)n[nH]1`, which Potency is on record?
A: Its Potency is “inactive”.

Q: For `COc1ccc(N=CC2=C(O)c3ccccc3C2=O)cc1`, which Potency is on record?
A: The Potency was inconclusive: 0.366 µM [activator, partial curve].

Q: With `CC(C)OCCCn1c(=S)[nH]c2ccc(N3CCOCC3)cc2c1=O` as the compound, how does the Potency read?
A: Its Potency is active: 5.8 µM.

Q: For `O=C(Nc1ccc2c(c1)Cc1ccccc1-2)c1ccc(Br)o1`, which Potency is on record?
A: Its Potency is inconclusive: 35.5 µM [inhibitor, single point].

Q: Which Potency does the source give for `N#CCSc1nnc(COc2cccc3ccccc23)n1-c1ccccc1` here?
A: Its Potency is inconclusive: 18.3 µM [inhibitor, single point].

Q: Which Potency does the source give for `CCOC(=O)c1cc(C)n(CCc2cnc[nH]2)c1C` here?
A: Its Potency is inconclusive: 22.4 µM [activator, single point].

Q: Which Potency does the source give for `COC(=O)CSc1nc(-c2cccs2)ccc1C#N` here?
A: The Potency was inconclusive: 0.0046 µM [activator, full curve, poor fit].
